Structures can show the parent of a compound that is named as a salt. This is one part of the list. Single values are uncertain here, since repeats match poorly.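 A first-round screen of about ten thousand compounds sought those raising reporter output, using human embryonic kidney cells briefly transfected with a plasmid carrying a Renilla luciferase gene driven by the HSV-TK promoter.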

The values below come from the supplement of paper PMC7024190.

This assay relates to HEK 293FT. The experiment in a line: log relative Renilla luciferase luminescence (reporter expression vs reference, reference not stated) (log (base not stated)); higher = higher recombinant reporter expression. The note with it: 10 µM; time after transfection 48 h.
Consider `O=C(O)C1=CC(=C(c2ccc(O)c(C(=O)O)c2)c2ccc(O)c(C(=O)O)c2)C=CC1=O` [aurin tricarboxylic acid], for which the log is -0.0051. With `C[C@@H]1C/C=C/C=C/C=C/C=C/[C@H](O[C@@H]2O[C@H](C)[C@@H](O)[C@H](N)[C@@H]2O)C[C@@H]2O[C@](O)(C[C@@H](O)C[C@H]3O[C@@H]3/C=C/C(=O)O1)C[C@H](O)[C@H]2C(=O)O` [natamycin], the log was found to be 0.178. Turning to `CC(C)[C@H](N)C(=O)OCCOCn1cnc2c(=O)nc(N)[nH]c21` [valacyclovir hydrochloride], the log was 0.0873. As for `NCCC(=O)N[C@@H](Cc1c[nH]cn1)C(=O)O` [carnosine], the log is -0.188. `CN(C(=O)CN(CCO)CC(=O)N(C)C(C)(C)Cc1ccccc1)C(C)(C)Cc1ccccc1` [oxethazaine]: the log is 0.0391. Take `COC(=O)N/N=C/c1c[n+]([O-])c2ccccc2[n+]1[O-]` [carbadox]: the log was -0.0784.

For `CC1(C)O[C@@H]2C[C@H]3[C@@H]4C[C@H](F)C5=CC(=O)C=C[C@]5(C)[C@@]4(F)[C@@H](O)C[C@]3(C)[C@]2(C(=O)CO)O1` [fluocinolone acetonide], the log came out at 0.0787.

On to `CCCCCCCC/C=C\CCCCCCCC(=O)O.NCCO` [ethanolamine oleate], for which the log worked out at 0.121. On to `CC(C)=CCc1c2c(c3occ(-c4ccc(O)c(O)c4)c(=O)c3c1O)C=CC(C)(C)O2` [pomiferin], for which the log amounted to 0.075. To `COc1cc(NS(=O)(=O)c2ccc(N)cc2)ncn1` [sulfamonomethoxine] belongs 0.0553; to `Cc1cc(C)nc(NS(=O)(=O)c2ccc(N)cc2)n1` [sulfamethazine], 0.193; to `COc1cc2c(cc1OC)Cc1cc(OC)c(OC)cc1Cc1cc(OC)c(OC)cc1C2` [cycloveratrylene], -0.0219.

Regarding `N[C@@H](CC(=O)N1CCn2c(nnc2C(F)(F)F)C1)Cc1cc(F)c(F)cc1F` [sitagliptin monophosphate monohydrate], the log amounted to 0.0818. On to `C[C@@H]1O[C@@H](O[C@H]2[C@H](Oc3cc(O)c4c(c3)O[C@H](c3ccc(O)cc3)CC4=O)O[C@H](CO)[C@@H](O)[C@@H]2O)[C@H](O)[C@H](O)[C@H]1O` [naringin], for which the log turned out to be 0.0492.

`C=COCC(F)(F)F` [fluroxene]: the log is -0.273. To `Cc1oc(=O)oc1CN1CCN(c2cc3c(cc2F)c(=O)c(C(=O)O)c2n3C(C)S2)CC1` (stereo not given) [prulifloxacin] belongs 0.0118. To `COc1cc(O)c(C(=O)/C=C/c2ccc(O)c(OC)c2)c(OC)c1` [2',4-dihydroxy-3,4',6'-trimethoxychalcone] belongs 0.047. In the case of `CC(=O)OCC(=O)[C@@]12OC3(CCCC3)O[C@@H]1C[C@H]1[C@@H]3CCC4=CC(=O)C=C[C@]4(C)[C@@]3(F)[C@@H](O)C[C@@]12C` [amcinonide], the log is 0.0887. Under `C[C@@H]1O[C@@H](OC[C@H]2O[C@@H](Oc3c(-c4ccc(O)c(O)c4)oc4cc(O)cc(O)c4c3=O)[C@H](O)[C@@H](O)[C@@H]2O)[C@H](O)[C@H](O)[C@H]1O` [rutin] stands 0.19; under `CCCC(=O)Nc1ccc(OCC(O)CNC(C)C)c(C(C)=O)c1` (stereo not given) [acebutolol hydrochloride], -0.225; under `CO/N=C(\C(=O)N[C@@H]1C(=O)N2C(C(=O)O)=C(CSC(=O)c3ccco3)CS[C@H]12)c1csc(N)n1` [ceftiofur hydrochloride], -0.084.

For `N=C(N)c1ccc(N=NNc2ccc(C(=N)N)cc2)cc1` [diminazene aceturate], the log was found to be 0.0481. To `O=C(Nc1ccccc1)OCC(CN1CCCCC1)OC(=O)Nc1ccccc1` (stereo not given) [diperodon hydrochloride] belongs -0.00278. Take `COc1c(O)cc(O)cc1O` [iretol]: the log was -0.0111. To `CCCCC1C(=O)N(c2ccccc2)N(c2ccccc2)C1=O` [phenylbutazone] belongs -0.0898. Under `O=C(O)/C=C/C=C/c1ccccc1` [juarezic acid] stands 0.166; under `COCCCOc1cc(C[C@@H](C[C@H](N)[C@@H](O)C[C@H](C(=O)NCC(C)(C)C(N)=O)C(C)C)C(C)C)ccc1OC` [aliskiren hemifumarate], -0.0213. Under `CCCCOC(=O)c1ccc(O)cc1` [butyl paraben] stands -0.176; under `C#C[C@]1(OC(C)=O)CC[C@H]2[C@@H]3CCC4=CC(=O)CC[C@@H]4[C@H]3CC[C@@]21C` [norethindrone acetate], 0.0668; under `CCCc1nc2c(C)cc(-c3nc4ccccc4n3C)cc2n1Cc1ccc(-c2ccccc2C(=O)O)cc1` [telmisartan], -0.13.

For `CC(=O)/N=c1/sc(S(N)(=O)=O)nn1C` [methazolamide], the log is 0.0241. `CC1=CC(=O)c2ccccc2C1=O` [menadione]: the log is -0.222. On to `COc1ccc(-c2cc(=O)c3c(O)c(OC)c(OC)c(OC)c3o2)cc1OC` [demethylnobiletin], for which the log is 0.102. To `N=C(N)N1CCc2ccccc2C1` [debrisoquin sulfate] belongs 0.0342; to `COc1cc(C(C)=O)cc(OC)c1O` [acetosyringone], 0.143. On to `CC(C)=CCC/C(C)=C\CO` [nerol], for which the log is 0.17. `COCCCOc1ccnc(C[S+]([O-])c2nc3ccccc3[nH]2)c1C` (stereo not given) [rabeprazole sodium]: the log was -0.0622.

Take `O=C(O)Cc1cc(I)c(Oc2ccc(O)c(I)c2)c(I)c1` [tiratricol]: the log is -0.0573. To `Cc1ccc(C(=O)C(C)CN2CCCCC2)cc1` (stereo not given) [tolperisone hydrochloride] belongs 0.0807; to `CNCC[C@@H](Oc1ccccc1C)c1ccccc1` [atomoxetine hydrochloride], 0.079; to `O=C(CCCCC(=O)Nc1c(I)cc(I)c(C(=O)O)c1I)Nc1c(I)cc(I)c(C(=O)O)c1I` [iodipamide], -0.204. For the compound `CC(C)(C)NCC(O)COc1cccc2c1CC(O)C(O)C2` (stereo not given) [nadolol], the log is -0.0348.

As to `CN(C)CC(=O)OC[C@@H](O)[C@@H](O)[C@H](O)[C@@H](O)C(=O)O` [pangamic acid sodium], the log is -0.0505. To `Cc1cc(O)cc(O)c1C(=O)O` [orsellinic acid] belongs 0.0989. To `CC[C@H](C)C(=O)O[C@H]1C[C@H](O)C=C2C=C[C@H](C)[C@H](CC[C@@H](O)C[C@@H](O)CC(=O)O)[C@H]21` [pravastatin sodium] belongs 0.0267.
